# The list shows a part of the results, in another mix than the full data. At the low end of the ranking the order means little.
# Protein sequences, listed by entry. Tags and fused reporters are not part of them. Lines headed by an entry give the natural chain unless they say otherwise; changes in a name come on top.
# UniProt O43186: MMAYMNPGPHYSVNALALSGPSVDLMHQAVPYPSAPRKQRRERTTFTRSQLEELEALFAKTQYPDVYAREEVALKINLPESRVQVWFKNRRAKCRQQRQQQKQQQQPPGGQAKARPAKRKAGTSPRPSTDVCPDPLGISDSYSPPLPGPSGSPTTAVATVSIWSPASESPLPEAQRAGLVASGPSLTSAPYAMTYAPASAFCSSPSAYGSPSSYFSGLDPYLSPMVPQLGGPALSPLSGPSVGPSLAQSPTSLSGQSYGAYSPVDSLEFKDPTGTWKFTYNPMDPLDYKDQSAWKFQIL
# Tests used:
# Experiment in all cases: DAPPL (digital affinity profiling via proximity ligation, sequencing)
# Conditions in all cases: 10 mM Tris-HCl pH 7.5, 50 mM NaCl, 1 mM DTT, 4% glycerol, room temperature, 30 min; GST-TFs on glutathione beads, 16-mer random dsDNA library, 0.1% …; high values mean tight binding; double strand, one strand shown; scale: fold enrichment (6-mer frequency, TF over GST control)
# FEV = target: T1, FEV (UniProt Q99581)
# T1 sequence: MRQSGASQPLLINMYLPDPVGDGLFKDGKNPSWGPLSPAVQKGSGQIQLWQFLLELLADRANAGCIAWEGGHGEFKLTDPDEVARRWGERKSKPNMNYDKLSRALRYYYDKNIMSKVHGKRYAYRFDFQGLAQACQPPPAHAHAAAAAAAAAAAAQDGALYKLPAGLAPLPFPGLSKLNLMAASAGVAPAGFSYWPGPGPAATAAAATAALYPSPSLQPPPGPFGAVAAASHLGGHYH
# CRX = CRX (UniProt O43186)
# ELF5 = target: T2, ELF5 (UniProt Q9UKW6-2)
# T2 sequence: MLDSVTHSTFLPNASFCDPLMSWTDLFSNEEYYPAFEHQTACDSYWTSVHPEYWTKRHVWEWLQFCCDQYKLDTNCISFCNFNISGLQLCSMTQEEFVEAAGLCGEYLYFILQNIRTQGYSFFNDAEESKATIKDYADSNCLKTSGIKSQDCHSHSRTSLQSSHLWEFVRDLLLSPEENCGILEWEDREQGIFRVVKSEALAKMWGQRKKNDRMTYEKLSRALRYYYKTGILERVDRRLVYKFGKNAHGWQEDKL
Sequence,binding signal (FEV),binding signal (CRX),binding signal (ELF5)
CGTATG,0.98,0.789,
AAGGTA,1.02,1.05,
TGCTCA,1.39,1.28,
GTACTC,1.11,0.876,
AGAAAT,1.12,1.35,
CCATAA,1.11,1.64,
CTGCCT,1.2,1.11,
CTCAAT,1.23,1.25,
AAGAAA,1.15,1.29,
CTTTTT,1.35,1.25,
CCCTGG,1.08,1.06,
ATGTAC,1.3,0.994,
TTCCGT,1.86,0.962,
TTTGAA,1.13,1.28,
AAGTCT,1.07,1.28,
ATTCTA,1.14,1.84,
CTGTCA,1.03,0.85,
GAAGTT,1.62,0.923,
GAAATG,1.77,0.858,
GTTCTA,1.26,1.59,
ACATTA,1.16,1.38,
CGCTAG,1.06,0.98,
CTTCAG,1.26,1.16,
ATGGAT,1.04,1.6,

Sequence,binding signal (FEV),binding signal (CRX),binding signal (ELF5)
GATGCC,1.41,0.915,
GAATCT,1.03,1.21,
GCTAAT,1.18,2.56,
ATATAC,1.11,1.08,
GCTACC,1.18,0.825,
ACTACT,1.3,1.11,
GGAAGC,1.74,0.607,
TCTTAG,1.16,1.86,
TGTGGA,0.997,1.06,
TAGGTT,0.948,1.25,
TTGACA,1.34,1.22,
AAAGGT,0.974,0.971,
AAAACT,1.16,1.16,
TCTACG,1.52,1.44,
TGGTAG,0.999,0.939,
TATCGA,1.2,1.59,
GGCTCT,1.35,1.27,
ATCTGT,1.22,1.45,
TGGCTT,1.34,1.75,
ACTCCT,1.47,1.32,
TCTTGC,1.24,1.21,
AAATTT,1.34,1.24,
TTCAGT,1.01,0.957,
AATTGG,1.43,1.23,

Sequence,binding signal (FEV),binding signal (CRX),binding signal (ELF5)
ACTTCA,1.38,1.17,
ATCTCG,1.19,1.92,
TGGTTC,1.35,0.963,
CTAGTT,1.23,1.16,
ATGAAA,1.13,1.08,
CTGGGT,1.06,0.915,
GCTCCA,1.22,1.01,
TAACCC,1.26,1.77,
CTTGTG,1.39,1.25,
TTATGT,1.15,2.24,
GTTCCA,1.01,0.996,
CCGATC,1.24,1.36,
GCGCTC,1.06,0.964,
TGGCAG,1.18,0.914,
TCCGGA,3.95,1.14,
TTGCGT,0.956,0.984,
GGTCCC,1.1,0.818,
TCTCAA,1.25,1.39,
TGACAC,1.11,0.831,
ACTTTA,1.15,1.54,
CGCTAC,1.18,0.864,
GATACT,1.1,1.07,
GTTCCG,1.99,0.753,
TCTGTC,1.13,0.995,

# 3 entries from above, with tabs.
Sequence	binding signal (FEV)	binding signal (CRX)	binding signal (ELF5)
TGGTTC	1.35	0.963	
CTAGTT	1.23	1.16	
ATGAAA	1.13	1.08	

# Next results

Sequence,binding signal (FEV),binding signal (CRX),binding signal (ELF5)
ATGACG,1.32,1.11,
ACACGA,1.1,0.964,
CTTGTC,1.23,0.981,
AACGTA,0.987,0.985,
TATTCC,1.61,1.77,
CTGCAA,1.29,,
ATCATA,1.07,,
TTAATT,1.31,,
GCTTCG,1.26,,1.3
GCCTCG,1.25,,1.23
CCCGCA,1.26,,
CGACTA,1.31,,1.34
AACTAA,1.35,,1.38
CTGATA,1.14,,
AATCCC,1.41,,
TATTAT,1.12,,
AGGTAT,0.97,,0.942
AATCAT,1.1,,
ATCAAT,1.05,,0.975
AGCTAA,1.03,,0.967
ATCAGC,0.937,,0.876
TAGTCT,0.983,,1.04
TTTCTT,1.23,,
TTCTCA,1.3,,1.23

Sequence,binding signal (FEV),binding signal (CRX),binding signal (ELF5)
GCTCCT,1.46,,
TCTAAG,1.13,,
ACTCTA,1.45,,
AATTCC,2.05,,2.39
TTTTGC,1.3,,1.27
TTCTTC,1.66,,2.02
CTAGGT,1.07,,1.01
GCTGAT,1.07,,1.03
TACTGG,1.01,,1.04
CTCAAA,1.28,,1.16
CCTACA,1.18,,1.41
TCTCAC,1.47,,1.37
TTAAGT,1.11,,1.12
TAAGGT,0.995,,1.05
CTGACT,1.32,,1.32
GTTTCG,1.27,,1.12
CTCTGT,1.39,,1.37
TTCACT,1.4,,1.32
GAAAGA,0.974,,0.985
AAGCTC,1.14,,1.07
CTTCAT,1.46,,

# Taken from the listing (3 entries):
Sequence,binding signal (FEV),binding signal (CRX),binding signal (ELF5)
CTAGTT,1.23,1.16,
ATGAAA,1.13,1.08,
CTGGGT,1.06,0.915,
